Our source for the growth estimate values is the supplement of paper PMC5949888.

Most values lie at the floor of the assay. Slopes are relative: functional sequences can read slightly below zero.

For the data set, the system named is Saccharomyces cerevisiae PS128 hsf1 delta, HSF1(1-493) fusion. The experiment in a line: growth estimate (transactivation domain function in HSF1 fusion, heat-shock survival) (a.u. (slope of normalised read count over time)); higher = stronger growth at 37°C, i.e. more transactivation activity. To be noted: library: random library. As for the experimental part:
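Random 60-nt DNA library encoding peptides of up to 20 aa, fused to the C-terminus of yeast HSF1 residues 1-493 (C-terminal TAD deleted) and expressed from the native HSF1 promoter on a CEN plasmid in hsf1-deleted S. cerevisiae PS128. Cells were selected at 37°C on -trp 5-FOA plates for 0, 2, 4, 6 and 8 days and amplicons were sequenced. Growth estimate is the slope of a robust linear fit of total-sum-normalised read counts (normalised to the first time point) over time, using at least 2 replicates. Sequences are classed functional (TAD activity) above a threshold of -0.13, set from stop-codon control sequences.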
For the substance ILGRGARTVREGAGYTSDSK, the growth estimate is less than -0.25.
For the substance VWGRNASKRVDFIGLEAETS, the growth estimate is less than -0.25.
As for TGRARRLRSPCNNSGRGFFY, the growth estimate is less than -0.25.
On to GSSMSP, for which the growth estimate is less than -0.25.
The figure for VDTGHAGAQTSRIPTDTLSP is less than -0.25.
For RSSKILNSRRLVGHRVTRKM, the growth estimate was less than -0.25.
In the case of MVFGGVPEGSCLWEERQSRG, the growth estimate is less than -0.25.
For KYRLRPVFEFTGF, the growth estimate was less than -0.25.
Turning to GTPTVSKVPGRCSVLQRLLR, the growth estimate is less than -0.25.
YLGG: the growth estimate is less than -0.25.
With LSLFA, the growth estimate was less than -0.25.
As to IEDGSSEPLLCRGSHSSDSH, the growth estimate was less than -0.25.
As for VGK, the growth estimate was less than -0.25.
The figure for LVINSKNVRLNRGYARSEGL is less than -0.25; for IRYCRRVAYRKGLSLRRLTH it is less than -0.25.
As for AMMVSCRRARTHVRNLESPM, the growth estimate was less than -0.25.
Consider FGVASSIPIGSLLCLQPRVG, for which the growth estimate is less than -0.25.
In the case of IEETGCIRTRSDV it was less than -0.25; in that of ERRFSFVALSRSRLGRRGNP, less than -0.25.
As to IRKLSMGAAEFL, the growth estimate is less than -0.25.
With YTGSTIVFLFEVLLPGPLEY, the growth estimate was less than -0.25.
Take NSSRRLDRQKDSSFAAQDRG: the growth estimate was less than -0.25.
LARASALSAR: the growth estimate was less than -0.25.
In the case of VVHHGGYSPGDTWRDRILKS, the growth estimate was less than -0.25.
For the substance TTGIADALPYPDVGGSSCGA, the growth estimate was less than -0.25.
In the case of GKGDLVGL it was less than -0.25; in that of LPANLLGQYVTTRGAPRRQH, -0.235.
For EPGKYNSTATHGTNLGNSAI, the growth estimate was less than -0.25.
As for RVWSEQVIF, the growth estimate is less than -0.25.
Consider KEEGPW, for which the growth estimate was -0.243.
For LWSETRMDVREETVFGKLRS, the growth estimate was less than -0.25.
Consider VKAGCLRANYGSITRCDDLT, for which the growth estimate was less than -0.25.
In the case of ICEICTFVNIIVSIMRGGGS, the growth estimate was less than -0.25.
The figure for PPMCWKKKHAYNMSLRPFSG is -0.219; for RANQKARCFVCGSGRAGIVG it is -0.243; for EESNLHISRRVGFCVSSHLR it is less than -0.25.
For EQCTTFEGCWDDTQWRLFAP, the growth estimate was 0.586.
Consider PVGACTSDFSYRCQPVEHLV, for which the growth estimate was less than -0.25.
Consider IYGVR, for which the growth estimate was less than -0.25.
Consider ILWARCDRG, for which the growth estimate is less than -0.25.
On to SSTCFCEVI, for which the growth estimate was less than -0.25.
Turning to AGSLSS, the growth estimate is less than -0.25.
Turning to KKATMVTREETQHYGCS, the growth estimate is less than -0.25.
Regarding GSFRLGLFPDG, the growth estimate was less than -0.25.
For the substance HCLHDKFLCALVRQLG, the growth estimate was less than -0.25.
Consider WDSPIGPLIPRIGRC, for which the growth estimate is less than -0.25.
Turning to EYGTGRWESLTDLLSSGTKS, the growth estimate was less than -0.25.
For VSSQESLQVTIDIIANVCAL, the growth estimate is less than -0.25.
Turning to IPR, the growth estimate was less than -0.25.
As to PNP, the growth estimate was less than -0.25.
Consider RVVRINPPPVRHGTAVHSGG, for which the growth estimate was less than -0.25.
The figure for STDMENEISHPAVGIRWPGG is 0.183; for HRWQS it is less than -0.25.
As to IHG, the growth estimate is less than -0.25.
The figure for VPDKHLACNLWILQKQRLCV is less than -0.25; for PGILL it is less than -0.25; for AGLTLLSSRFPGPSSIGKIA it is -0.248.
As to AVLKSSASLVPGFNPA, the growth estimate is less than -0.25.
For the substance WRLVNQDTHP, the growth estimate is less than -0.25.
The figure for HPALGELARPVNSDIF is less than -0.25.
For INLPSLEVAIA, the growth estimate is less than -0.25.
Take WDLLSMRGPF: the growth estimate is less than -0.25.
As for LHRFRLELGGNSGNSLPMPA, the growth estimate was less than -0.25.
Regarding EWPRVCGRSGGPRKAPRGH, the growth estimate was less than -0.25.
RTHGDGNVCTKTHATTVQEL: the growth estimate is less than -0.25.
On to SVWRGLSSRRGQCRHLSRIY, for which the growth estimate is less than -0.25.
Take LQASGRQIRSR: the growth estimate was less than -0.25.
In the case of GDRSLQFRMGSSGRWCQSGF it was less than -0.25; in that of NLENSFSGDPGSSRRVSSPC, less than -0.25.
Take NEFKQSNL: the growth estimate was less than -0.25.
As to EFNHVPLAGFL, the growth estimate was less than -0.25.
Take PVTKLRPLWLVLSWMIPNFK: the growth estimate is less than -0.25.
With KGWAACT, the growth estimate is less than -0.25.
For RVSTELKSYSSRSAGASARV, the growth estimate was -0.197.
On to LEEELLYGGEARRCLAASTM, for which the growth estimate is less than -0.25.
WQATAAFF: the growth estimate was 0.465.
Regarding PRSTRESRVETRRRPRAIKN, the growth estimate is less than -0.25.
For the substance KSNRATLIWSLTEV, the growth estimate was less than -0.25.
As to LGVK, the growth estimate is less than -0.25.
MPVLSGVVKRRSADAPSVT: the growth estimate was less than -0.25.
Take KSGMYWGLLEPLSMPKQCSP: the growth estimate is less than -0.25.
SSGWRMAEIVGGSYASEIAI: the growth estimate is less than -0.25.
In the case of HCCTNSATQYTESERSKLP it was less than -0.25; in that of EVYSEFRCDQAFVGCTLPGK, less than -0.25.
The figure for ISPLGTPDVSV is less than -0.25.
Consider HKPPITLPRRRRVITGFKVH, for which the growth estimate is less than -0.25.
Regarding LPGALDTVGTFKRANCPSSW, the growth estimate is less than -0.25.
Regarding VRVLDGQRIIASLSIALPIS, the growth estimate is less than -0.25.
In the case of MREPYAFRLKQITPRPGRCV it was less than -0.25.
For the substance SSGK, the growth estimate is less than -0.25.
As for HIGNGGVPGVLMRSGRCAVE, the growth estimate was less than -0.25.
CVTN: the growth estimate is less than -0.25.
Consider QLGIIPQGGP, for which the growth estimate is less than -0.25.
As to SMVSAFCSVGAKVEGVGGEV, the growth estimate was less than -0.25.
With LRTRQKLVVARAGGMRPSHG, the growth estimate is less than -0.25.
As to QRKWEGEYSAAHAEES, the growth estimate was less than -0.25.
In the case of RIRYRADVALGLIRAVARVQ, the growth estimate was less than -0.25.
Regarding HPTC, the growth estimate is less than -0.25.
For QAF, the growth estimate was less than -0.25.
For SFFWGSQQSSSGHFLQAVDG, the growth estimate was less than -0.25.
The figure for CVCHCHEVYRE is less than -0.25; for PTTVVATSRE it is less than -0.25; for AMIVESAGPGRGSSANPRRG it is less than -0.25.
Turning to PCS, the growth estimate was less than -0.25.
On to PRSVRNICGTRTRQLLKCKS, for which the growth estimate is less than -0.25.
AAVGDKGGGSLGAARDEGTP: the growth estimate was less than -0.25.
As for FSVRK, the growth estimate was less than -0.25.
Regarding EVRTNVQISKCFR, the growth estimate was less than -0.25.
Turning to FFRQSN, the growth estimate was less than -0.25.
On to CESALNMRSLSPSRAMGEGL, for which the growth estimate was less than -0.25.
Consider SAKRVF, for which the growth estimate was less than -0.25.
For VLQVIPSCGFPVQTRTVCQH, the growth estimate is less than -0.25.
The figure for FVECLTWRDPGLNPSPCRCD is less than -0.25; for QSTGRKVMWADVGSY it is less than -0.25.
